# Experimental data taken from PubChem BioAssay AID504834 (National Center for Advancing Translational Sciences (NCATS), 2011).
# The whole screen tested about 320,000 compounds, of which about 22,000 (6.9%) were called active. The inconclusive results got no clear call from the source; some entries with a clear call stand among them for comparison. Calls come from the whole dose curve; as a rule, active = well fitted inhibition curve with a large enough effect; inconclusive = small, poorly fitted or top-dose-only effect, or another doubt; inactive = no such curve, though single readings can be large or run the other way. Potencies beside an inconclusive call are fits to weak or partial responses and may not hold up.
# Assay: Primary qHTS for delayed death inhibitors of the malarial parasite plastid, 96 hour incubation
# Details: P. falciparum luciferase reporter growth; series mostly up to 28.7 µM; activity change, negative = inhibition: at the top concentration
# Outline: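 Infected RBCs, 2% Hct / 0.05% parasitemia final; luciferase-reporter P. falciparum; cpd 96 h, 37 C, 5% CO2; luciferase detection reagent; luminescence.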
# % is set by controls: 0 for no effect and ±100 for the full control effect; potency is the fitted concentration of half-maximal effect.
SMILES,Potency,"activity change, negative = inhibition"
CC1CN(Cc2c(O)ccc3c2oc(=O)c2ccccc23)CC(C)O1 (stereo not drawn),active: 2.33 µM,
O=[N+]([O-])c1cc(-c2nc(-c3ccncc3)no2)ccc1Cl,,inactive: 3.85%
O=C(c1ccco1)N1CCN(C(=S)Nc2cc(F)cc(F)c2)CC1,"inconclusive: 8.28 µM [inhibitor, partial curve]",
O=C(CSCc1ccccc1)Nc1ccc(S(=O)(=O)Nc2ncccn2)cc1,,inactive: -12.1%
COc1ccc(C(=O)Nc2ccc3nc(N4CCCCC4)cc(C)c3c2)cc1OC,active: 11.7 µM,
CC1=C(C(=O)Nc2ccccc2)C(c2ccco2)C(C#N)=C(SCC(=O)OC(C)C)N1 (stereo not drawn),active: 7.38 µM,
CN(Cc1ccccc1)C(=O)c1cn(C)c2ccc(S(=O)(=O)N3CCCC3)cc2c1=O,"inconclusive: 11.7 µM [inhibitor, single point]",
CN(C(=O)COC(=O)Cn1c(C(F)(F)F)nc2ccccc21)c1c(N)n(Cc2ccccc2)c(=O)[nH]c1=O,,inactive: 28.8%
COC(=O)c1c(NC(C)=O)sc(C)c1C,"inconclusive: 18.5 µM [inhibitor, single point]",
COc1cccc(NC(=O)C(Cc2ccccc2)NC(=O)C2CCC(C)CC2)c1 (stereo not drawn),"inconclusive: 0.522 µM [inhibitor, full curve, poor fit]",
CCCSc1nsc(SCCC)c1C#N,"inconclusive: 18.5 µM [inhibitor, single point]",
COc1ccc(OC)c(NC(=O)CN2C(=O)NC(C)(c3ccc4c(c3)OCCO4)C2=O)c1 (stereo not drawn),"inconclusive: 5.86 µM [inhibitor, single point]",
CCCCc1cc(=O)oc2cc(C)cc(OC(C)C(=O)NCc3ccccn3)c12 (stereo not drawn),"inconclusive: 1.65 µM [inhibitor, full curve, poor fit]",
CCOc1cnc(C(=O)NNC(=O)c2ccccc2Br)o1,"inconclusive: 18.5 µM [inhibitor, single point]",
CC1Sc2ccc(S(=O)(=O)CCC(=O)N3CCN(c4ccccc4)CC3)cc2NC1=O (stereo not drawn),"inconclusive: 11.7 µM [inhibitor, partial curve]",
CC1CCN(CC(CS(=O)(=O)c2ccc([N+](=O)[O-])cc2)N2CCC(C)CC2)CC1 (stereo not drawn),"inconclusive: 13.1 µM [inhibitor, partial curve]",
O=C(CN(c1ccccc1)S(=O)(=O)c1ccccc1)N/N=C/c1ccco1,active: 3.7 µM,
Cc1ccc(N(Cc2ccc(C(=O)NC3CCCCC3)cc2)S(C)(=O)=O)cc1C,"inconclusive: 18.5 µM [inhibitor, single point]",
C=CCn1c(C(C)NC(=O)C(C)(C)C)nc2ccccc21 (stereo not drawn),"inconclusive: 18.5 µM [inhibitor, single point]",
CN(CC(=O)Nc1ccc(Cl)c(S(=O)(=O)N(C)C)c1)Cc1ccccc1,"inconclusive: 18.5 µM [inhibitor, single point]",
Cc1ccc(OCCNC(=O)c2ccccc2OCc2c(C)noc2C)cc1,"inconclusive: 10.4 µM [inhibitor, partial curve, poor fit]",
O=C(N/N=C/c1cccs1)c1ccc(-n2cccc2)cc1,"inconclusive: 10.4 µM [inhibitor, partial curve, poor fit]",
O=C1C2=C(c3ccccc31)[N+](=O)[C@@H]1CCCC[C@@H]1N2[O-],"inconclusive: 5.22 µM [inhibitor, partial curve]",

SMILES,Potency,"activity change, negative = inhibition"
CN(C)CCCNC(=O)c1cc(C(=O)c2c(Cl)cccc2Cl)c[nH]1,,inactive: 14.7%
O=C(O)c1cc2ccc3cccc4ccc(c1)c2c34,,inactive: 14.9%
O=C(CN1CCCCCC1)Nc1ccccc1C(=O)Nc1ccccc1,,inactive: -5.8%
Cc1cccc(S(=O)(=O)C(C#N)c2nc3ccccc3nc2N2CCOCC2)c1 (stereo not drawn),"inconclusive: 9.28 µM [inhibitor, partial curve, poor fit]",
CS(=O)(=O)Nc1ccc(C(=O)Nc2ccc(S(=O)(=O)N3CCCCC3)cc2)cc1,"inconclusive: 16.5 µM [inhibitor, partial curve, poor fit]",
N#CC1=C(N)OC2=C(CC/C2=C\c2ccccc2Cl)C1c1ccccc1Cl (stereo not drawn),"inconclusive: 18.5 µM [inhibitor, single point]",
Nc1nc(CSc2nc3ccccc3[nH]2)nc(N2CCOCC2)n1,,inactive: -1.08%
Cc1ccc(Cn2nnc3c(=O)[nH]c(C4CCCN(S(=O)(=O)c5ccccc5)C4)nc32)cc1 (stereo not drawn),"inconclusive: 13.1 µM [inhibitor, single point]",
COc1ccc(/C=C/CN2CCC(n3nccc3NC(=O)C3CCCC3)CC2)cc1,,inactive: 7.6%
Cc1[nH]c2ccccc2c1/C=N/NC(=S)NCc1ccccc1,,inactive: 7.26%
ClC1=C(Cl)C(Cl)=C(Cl)C1=C/C=C/c1ccccc1,"inconclusive: 16.5 µM [inhibitor, single point]",
Cc1cc(C)c(OCC(=O)Nc2ccc(N3CCOCC3)cc2)c(Br)c1,,inactive: 18.7%
CCc1ccc(-n2c(SCC(=O)NC3CCS(=O)(=O)C3)nc3ccccc3c2=O)cc1 (stereo not drawn),"inconclusive: 0.0586 µM [inhibitor, full curve, poor fit]",
CN(C)CCCO/N=C(\c1ccccc1)c1ccncc1,"inconclusive: 18.5 µM [inhibitor, single point]",
COc1ccc(C(=O)O/N=C(\N)c2ccccc2)c(OC)c1,,inactive: -72.4%
O=[N+]([O-])c1ccc(Sc2ccccc2)nc1,,inactive: -110%
O=C(c1cc(=O)[nH]c2ccccc12)N1CCN(S(=O)(=O)c2ccc3ccccc3c2)CC1,"inconclusive: 2.94 µM [inhibitor, partial curve, poor fit]",
Cc1c(C(=O)O)c(C(=O)O)nc2ccc(N3CCOCC3)cc12,,inactive: 36.1%
CCOc1cccc2sc(N(CCN(CC)CC)C(=O)c3cccc(N4C(=O)CCC4=O)c3)nc12,"inconclusive: 10.4 µM [inhibitor, partial curve]",
COc1ccccc1C(CNC(=O)C1CC(=O)N(Cc2ccc(C)cc2)C1)N1CCCC1 (stereo not drawn),,inactive: 8.23%
COc1ccccc1CNC(=O)c1cc(-c2ccccc2C)n(CC2CC(c3cccc([N+](=O)[O-])c3)=NO2)n1 (stereo not drawn),"inconclusive: 2.08 µM [inhibitor, full curve, poor fit]",
CCOC(=O)Cn1c(N2CCOCC2)nc2c1c(=O)[nH]c(=O)n2C,active: 11.7 µM,
CN(C)CCCN(C(=O)c1ccc(S(=O)(=O)N2CCc3ccccc32)cc1)c1nc2ccc(Cl)cc2s1,active: 5.22 µM,

SMILES,Potency,"activity change, negative = inhibition"
O=C(NCCc1ccccc1)C(=O)Nc1ccc2c(c1)OCCO2,"inconclusive: 0.657 µM [inhibitor, full curve, poor fit]",
CCC(=O)c1cn(CC(=O)Nc2ccccc2Cl)c2ccccc12,,inactive: 163%
CC(=O)NS(=O)(=O)c1ccc(NC(=O)CC(C)c2ccccc2)cc1 (stereo not drawn),,inactive: 46.5%
CCCCOc1ccc(C(C)=O)cc1Cc1c(O)[nH]c(=S)[nH]c1=O,"inconclusive: 11.7 µM [inhibitor, single point]",
COc1ccccc1CNC(=O)C1CCCC1,,inactive: -3.44%
Cc1cc(NC(=O)CSCC(=O)OC(C)C(=O)c2cc(C)c(C)cc2C)no1 (stereo not drawn),"inconclusive: 4.15 µM [inhibitor, partial curve, poor fit]",
CCc1nnc(SCC(=O)Nc2ccc(N3CCN(S(C)(=O)=O)CC3)cc2)o1,"inconclusive: 18.5 µM [inhibitor, partial curve, poor fit]",
COc1ccc(C(=O)Nc2cc(C)on2)c(OC)c1,,inactive: 85.1%
CCCCn1c(N)c(N(Cc2ccccc2OC)C(=O)c2cc(CC)c(C)s2)c(=O)[nH]c1=O,"inconclusive: 18.5 µM [inhibitor, single point]",
CC1(C)CC(CCNCc2ccc3c(c2)OCO3)(Cc2ccccc2)CCO1 (stereo not drawn),"inconclusive: 18.5 µM [inhibitor, single point]",
O=C(NCCc1cccc(F)c1)C1CCCN(c2nc3ccccc3s2)C1 (stereo not drawn),"inconclusive: 4.65 µM [inhibitor, partial curve, poor fit]",
COc1ccc(C(=O)C(OC(=O)c2ccccc2Cl)c2ccccc2)cc1 (stereo not drawn),"inconclusive: 14.7 µM [inhibitor, partial curve, poor fit]",
C=CCn1c(N)c(C(=O)Nc2ccccc2)c2nc3ccccc3nc21,"inconclusive: 18.5 µM [inhibitor, single point]",
COCCNC(=O)/C(C#N)=C/C=C/c1ccccc1,"inconclusive: 9.28 µM [inhibitor, partial curve, poor fit]",
O=C(NCc1ccccc1)C1CCCN(S(=O)(=O)c2ccc(F)cc2)C1 (stereo not drawn),active: 11.7 µM,
COc1ccc(CCNC(=O)COc2ccc(C)nc2[N+](=O)[O-])cc1,,inactive: -4.32%
COc1cccc(-c2c(C(=O)N/N=C/c3sccc3C)nnn2-c2nonc2N)c1,"inconclusive: 3.29 µM [inhibitor, partial curve]",
Cn1cc(Cl)c(C(=O)OCC(=O)Nc2ccc(S(N)(=O)=O)cc2)n1,"inconclusive: 4.15 µM [inhibitor, partial curve, poor fit]",
COc1cc2c(cc1OC)CN(C(=O)c1ccc(OC)c(S(=O)(=O)N3CCCC3)c1)CC2,"inconclusive: 2.08 µM [inhibitor, full curve]",
Cc1ccccc1C(CC(=O)c1cccs1)C(C#N)C#N (stereo not drawn),"inconclusive: 18.5 µM [inhibitor, single point]",
Cc1c(NC(=O)c2coc(=O)c(Br)c2)c(=O)n(-c2ccccc2)n1C,"inconclusive: 18.5 µM [inhibitor, single point]",
CCc1nc(Nc2cccc(OC)c2)c2oc3ccccc3c2n1,"inconclusive: 18.5 µM [inhibitor, single point]",

# Ordered by number of heavy atoms (smallest number first): part of the list above
SMILES,Potency,"activity change, negative = inhibition"
CC1(C)CC(CCNCc2ccc3c(c2)OCO3)(Cc2ccccc2)CCO1 (stereo not drawn),"inconclusive: 18.5 µM [inhibitor, single point]",
CCc1ccc(-n2c(SCC(=O)NC3CCS(=O)(=O)C3)nc3ccccc3c2=O)cc1 (stereo not drawn),"inconclusive: 0.0586 µM [inhibitor, full curve, poor fit]",
COc1ccccc1CNC(=O)c1cc(-c2ccccc2C)n(CC2CC(c3cccc([N+](=O)[O-])c3)=NO2)n1 (stereo not drawn),"inconclusive: 2.08 µM [inhibitor, full curve, poor fit]",
